# From PubChem BioAssay AID2417 (National Center for Advancing Translational Sciences (NCATS), 2010)
# Out of some 140,000 compounds screened, about 4,300 (3.1%) were called active. This list was built around the results that the source calls inconclusive (neither active nor inactive); the mix of calls is not that of the screen.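 Rule for the calls: active = readout at or below -70, meaning at least 70% loss of cells showing the perinucleolar compartment, a nuclear body marking cancer cells; inconclusive = readout between -30 and a set limit; inactive = the rest.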
# Test: High Content Assay for Compounds that inhibit the Assembly of the Perinucleolar Compartment;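 note: plate controls were DMSO wells for no effect and camptothecin positive control wells for full effect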
# Details: PC3M PTB-GFP, PNC prevalence imaging, 16 h; at 10 µM; stronger effect = lower value
# Outline: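 Read-out is percentage of cells bearing a perinucleolar compartment, from automated 20x imaging of fixed, Hoechst-stained PC3M PTB-GFP cells. Cells were seeded 4 h, then exposed 16 h to compound (23 nl of library stock) in duplicate plates.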
row,Compound,"activity change (PNC), negative = inhibition"
1,CCOC(=O)c1c(/N=C/c2c(O)n(-c3cccc(C)c3)c(=O)[nH]c2=O)sc2c1CCCC2,inconclusive: -30.4%
2,COc1ccccc1N1CCN(Cc2ccccc2Cl)CC1,inactive: 16.8%
3,O=C(Cn1nc(Cc2cccnc2)c2ccccc2c1=O)N1CCC2(CC1)OCCO2,inconclusive: -62.2%
4,CCCCn1c(O)c(C(C)=NCCN2CCOCC2)c(=O)[nH]c1=O,inactive: -27.6%
5,C=CCN1C(=O)/C(=C/c2cccs2)C(=O)NC1=S,inconclusive: -33.7%
6,CCn1c(O)c(C=Nc2cc(Cl)ccc2Cl)c(=O)n(CC)c1=O,inconclusive: -40.2%
7,CON(C)C(=O)Nc1ccc(Cl)cc1,active: -121%
8,CCn1c(O)c(/C=N/N2CCOCC2)c(=O)n(CC)c1=S,inconclusive: -56.2%
9,CC1CCCN(CC(=O)N2CCCc3ccccc32)C1 (stereo not given),inconclusive: -58.1%
10,CC(C)c1cccc(C(C)C)c1OCCn1ccnc1,inconclusive: -35.1%
11,N/C(=N\N=C/c1ccc(-c2ccc(O)c(C(=O)O)c2)o1)N[N+](=O)[O-],inactive: -24.5%
12,COc1cc(/C=C2\C(=O)NC(=O)N(CCc3ccc(F)cc3)C2=O)ccc1O,inactive: 21.8%
13,Cc1ccc(C2=NC(C)(C)N3C2C3c2ccc([N+](=O)[O-])cc2)cc1 (stereo not given),inconclusive: -65.2%
14,COc1ccccc1CCNCc1cc2c(cc1[N+](=O)[O-])OCO2,inactive: 40.6%
15,CNCC1(c2ccccc2)CCCC1,inconclusive: -44.9%
16,CN1C(=O)C(=Cc2ccc(N3CCOCC3)o2)C(=O)N(C)C1=O,inactive: -23.6%
17,CC(C)CNC(=O)c1c(N)n(Cc2ccco2)c2nc3ccccc3nc12,inactive: 0%
18,COC(=O)CSC1=NP(=S)(SCC(=O)OC)N2CCCC2=C1C#N (stereo not given),active: -127%
19,CCCCc1nc(N2CCNCC2)c(C#N)c2c1CSC(C)(C)C2,inconclusive: -77.2%
20,Cc1cccc(N2C(=O)NC(=O)/C(=C\c3cc(C)n(-c4sc5c(c4C#N)CCCC5)c3C)C2=O)c1C,inactive: 16.5%
21,COc1cc2occc2c2oc(=O)ccc12,inactive: 20%
22,Cc1cccc(C(=O)Nc2ccc(Cl)cc2C(=O)c2ccccc2)c1,inconclusive: -31.2%
23,CCOC(=O)c1sc(/N=C/c2c(O)n(-c3ccccc3)c(=O)[nH]c2=O)c(C#N)c1C,inactive: 15.5%

row,Compound,"activity change (PNC), negative = inhibition"
1,CC(C)c1ccc(N2C(=O)NC(=O)/C(=C/C=C/c3ccco3)C2=O)cc1,inactive: 19.2%
2,C[C@]12CCC(=O)C=C1CCC1C2CC[C@@]2(C)C1CC[C@@]2(O)CC#N (stereo not given in full),inconclusive: -33.1%
3,O=C1NC(=O)C(CCc2ccncc2)(Cc2ccc3c(c2)OCO3)C(=O)N1CCc1ccccc1 (stereo not given),inconclusive: -65.8%
4,CCN1CCN(Cc2cc(C(C)(C)C)c(O)c(C(C)(C)C)c2)CC1,inactive: -11.3%
5,Cc1ccc(-n2c(O)c(C=Nc3ccc(S(=O)(=O)N(C)C)cc3)c(=O)[nH]c2=O)cc1,inconclusive: -62.5%
6,O=C(Cc1ccccc1)OCCNC(=O)c1cccnc1,inconclusive: -42.7%
7,OC1(c2cccnc2)CC2CCC(C1)N2Cc1nnnn1Cc1ccccc1 (stereo not given),inconclusive: -32.6%
8,CCCCOc1ccc(CC2C(=O)N(C)C(=O)N(C)C2=O)cc1,inconclusive: -69.2%
9,COc1ccc(C2SCC(=O)Nc3c2c(C)nn3-c2ccccc2)cc1OC (stereo not given),inconclusive: -30.1%
10,CCN(CCNc1ccc([N+](=O)[O-])c2cccnc12)S(=O)(=O)c1ccc(Cl)cc1,inactive: -2.5%
11,COc1ccc([N+](=O)[O-])cc1N=Cc1c(O)n(CCc2ccccc2)c(=O)n(C(C)C)c1=O,inactive: 5.14%
12,O=C1NC(=O)C(CCc2ccncc2)(C2CCCCC2)C(=O)N1,inconclusive: -54.1%
13,Nc1ccc(C2(c3ccc(N)cc3)CN3CCC2CC3)cc1,inconclusive: -34%
14,COc1ccc(C(C)=O)cc1CC(C(=O)c1ccccc1)N(C)C (stereo not given),active: -94%
15,CCSc1cc(C2C(C#N)=C(N)Oc3n[nH]c(C)c32)c(C)o1 (stereo not given),inconclusive: -52.9%
16,CCC(=NCCC(c1ccccc1)c1ccccc1)c1c(O)[nH]c(=O)[nH]c1=O,active: -95.9%
17,Cc1cc2c(C(C)C)c(O)c(O)c(C=O)c2c(O)c1-c1c(C)cc2c(C(C)C)c(O)c(O)c(C=O)c2c1O,inconclusive: -46.3%
18,CCC(C)N1C(=O)/C(=C\c2cc3c4c(c2)CCCN4CCC3)C(=O)NC1=S (stereo not given),inactive: 10.7%
19,O=c1[nH]c2ccccc2n1C1CCN(CCCC(c2ccc(F)cc2)c2ccc(F)cc2)CC1,inactive: 0.693%
20,CCC1(c2ccccc2)C(=O)N(C)C(=O)N(C)C1=O,inactive: 9.53%
21,C=CCn1c(O)c(C(C)=NCc2cccnc2)c(=O)[nH]c1=O,inconclusive: -45.3%
22,CC1(C)CC(=O)C(C=NCCN2CCN(C(=O)Cc3ccccc3)CC2)=C(O)C1,inconclusive: -51%
